PMC9937023
Results are given in words; binding and its absence hold for the method and conditions named. In cells and extracts the contact can be indirect. Binding calls can cover weak binding; strength is not graded here. Tags and fused reporters may be left off the sequences shown.

T1: Stat92E, HA-tagged (pAC5.1-Stat92E-HA) (Drosophila melanogaster) (UniProt Q24151)
T1 sequence: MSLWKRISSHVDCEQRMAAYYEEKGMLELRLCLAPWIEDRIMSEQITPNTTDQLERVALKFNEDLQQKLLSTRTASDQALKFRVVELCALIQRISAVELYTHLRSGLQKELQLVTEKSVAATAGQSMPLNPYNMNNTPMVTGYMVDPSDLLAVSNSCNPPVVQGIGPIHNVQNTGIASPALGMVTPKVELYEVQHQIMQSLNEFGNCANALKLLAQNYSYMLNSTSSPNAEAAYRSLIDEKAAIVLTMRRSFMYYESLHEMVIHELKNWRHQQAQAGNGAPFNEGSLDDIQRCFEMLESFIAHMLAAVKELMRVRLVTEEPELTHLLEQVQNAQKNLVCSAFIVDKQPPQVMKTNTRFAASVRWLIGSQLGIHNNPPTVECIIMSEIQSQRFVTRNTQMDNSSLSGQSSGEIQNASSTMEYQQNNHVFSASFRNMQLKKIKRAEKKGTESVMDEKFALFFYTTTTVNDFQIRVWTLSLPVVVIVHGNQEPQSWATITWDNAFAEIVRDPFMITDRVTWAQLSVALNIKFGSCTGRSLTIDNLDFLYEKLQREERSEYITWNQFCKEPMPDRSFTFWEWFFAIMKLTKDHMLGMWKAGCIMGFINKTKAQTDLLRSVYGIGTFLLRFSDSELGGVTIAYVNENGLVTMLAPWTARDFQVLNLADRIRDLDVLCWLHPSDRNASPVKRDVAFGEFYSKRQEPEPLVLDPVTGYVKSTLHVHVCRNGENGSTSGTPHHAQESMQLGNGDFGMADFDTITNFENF


Experiments:
[1] = target: T1, Stat92E, HA-tagged (pAC5.1-Stat92E-HA) (Drosophila melanogaster); test: co-IP; S2 cells co-transfected with Stat92E-HA and Flag-tagged domains of Ect4; lysates (150 mM NaCl, 25 mM Tris-HCl pH 7.4, 5% glycerol, 1% NP-40, 1 mM EDTA) incubated overnight at 4°C with anti-HA affinity gel; Western blot
[2] = target: Ectoderm-expressed 4 (Ect4), Flag-tagged (pAC5.1-Ect4-Flag) (Drosophila melanogaster); test: co-IP; S2 cells co-transfected with differentially tagged Ect4 and JAK/STAT components; lysates (150 mM NaCl, 25 mM Tris-HCl pH 7.4, 5% glycerol, 1% NP-40, 1 mM EDTA) incubated overnight at 4°C with anti-Flag M2 affinity gel; Western blot

| Molecule | binding [1] | binding [2] |
| --- | --- | --- |
| Ect4 TIR domain (aa 829-1360), Flag-tagged (Drosophila melanogaster) (domain or fragment) | binds |  |
| Ect4 SAM domain (aa 680-826), Flag-tagged (Drosophila melanogaster) (domain or fragment) | no binding |  |
| Ect4 ARM domain (aa 318-701), Flag-tagged (Drosophila melanogaster) (domain or fragment) | no binding |  |
| Stat92E, HA-tagged (pAC5.1-Stat92E-HA) (protein, UniProt Q24151 1-761) MSLWKRISSHVDCEQRMAAYYEEKGMLELRLCLAPWIEDRIMSEQITPNTTDQLERVALKFNEDLQQKLLSTRTASDQALKFRVVELCALIQRISAVELYTHLRSGLQKELQLVTEKSVAATAGQSMPLNPYNMNNTPMVTGYMVDPSDLLAVSNSCNPPVVQGIGPIHNVQNTGIASPALGMVTPKVELYEVQHQIMQSLNEFGNCANALKLLAQNYSYMLNSTSSPNAEAAYRSLIDEKAAIVLTMRRSFMYYESLHEMVIHELKNWRHQQAQAGNGAPFNEGSLDDIQRCFEMLESFIAHMLAAVKELMRVRLVTEEPELTHLLEQVQNAQKNLVCSAFIVDKQPPQVMKTNTRFAASVRWLIGSQLGIHNNPPTVECIIMSEIQSQRFVTRNTQMDNSSLSGQSSGEIQNASSTMEYQQNNHVFSASFRNMQLKKIKRAEKKGTESVMDEKFALFFYTTTTVNDFQIRVWTLSLPVVVIVHGNQEPQSWATITWDNAFAEIVRDPFMITDRVTWAQLSVALNIKFGSCTGRSLTIDNLDFLYEKLQREERSEYITWNQFCKEPMPDRSFTFWEWFFAIMKLTKDHMLGMWKAGCIMGFINKTKAQTDLLRSVYGIGTFLLRFSDSELGGVTIAYVNENGLVTMLAPWTARDFQVLNLADRIRDLDVLCWLHPSDRNASPVKRDVAFGEFYSKRQEPEPLVLDPVTGYVKSTLHVHVCRNGENGSTSGTPHHAQESMQLGNGDFGMADFDTITNFENF |  | binds |
| Hopscotch (Hop), V5-tagged (pAC5.1-hop-V5) (enzyme, UniProt Q24592 1-1177) MALANGGEDRMDDSSSGRTSLADSASLTNSSLRSGTSSQSIHTNDGTIRVFNFTTGEFERFHPNMLCEEICNTMCRQLGIAPIAQLLYGIREHSTSRRPSPLVRLDLTWCLPGERLNCQLVYCFRMRFRVPELDSQLELIDGRSHKFLYRQMRYDMRTEQIPEIRYPEHKDKSTGLAVMDMLIDDQEQSEDQQAMRSIEKLYKLYLPPSLWRAHSFFVGSKIREVFRSLKANSLSVERLKWHYVHQVSHLAPTYMTEQFTCTVQYLPNEEVARGSGPIGTSLAHSTSTLASSGSTNTLSTLTTNTNSVALGGSGKKAKRRSTSGGIDVYVRVFPHDSLEPGLKVARVTSEATLKWILVGAVEGIFMISKINDTSVRLEIVGLPKGYEMQFQTEKEMKSFISYLGIYIRLSSKWMQDLCHSYRTPSLEELSSLHCHGPIGGAYSLMKLHENGDKCGSYIVRECDREYNIYYIDINTKIMAKKTDQERCKTETFRIVRKDSQWKLSYNNGEHVLNSLHEVAHIIQADSPDRYRIPASKYDKPPLLLLLLPKNLKAKKTDLQLSEAELQRRNPQIFNPRTDLQWYPDSISLSDDGMMFTMRGDWIQQSPVKDVSVTMKMLKSDGNFMEFFRLAQTWSLIQSPQFLKLYGLTLADPYTMVMEYSRYGPLNKFLHSMPNVTLHCLLDLMHGLVRGMHYLEDNKIIHNYIRCSNLYVTKYDPNSYVLDAKISDPGYPRPYRESDSPWIPVKYYRNLQAAKTDQFAQLWAFATTIYEIFSRCKEDLSTLRQEQLLRQKNLDGNILKMLDQDICPAPIFETIMDGWSDDETKRFSHHDIFSRLNTIKAEILPNYMPPPEIATNGTGDETVIDRSDIPFLPFPRSNMLMVIPLTSECRVIYNMENMIGRGHYGTVYKGHLEFNDKDQPREQVAIKMLNTMQVSTDFHREIGIMRTLSHPNIVKFKYWAEKSHCIIMEYLQSGSFDIYLRFTAPNLNNPRLVSFALDIANGMKYLSDMGLIHRDLAARNILVDHNGDGDCVKISDFGLAQFANSDGYYYAKSKRDIPIRWYSPEAISTCRFSSYSDVWSYGVTLFEMFSRGEEPNLVPIQTSQEDFLNRLQSGERLNRPASCPDFIYDLMQLCWHATPRSRPSFATIVDIITREVATKVTHPTDGHQSPPNQPTDAE |  | no binding |
| Domeless (Dome), V5-tagged (pAC5.1-Dome-V5) (receptor, UniProt Q9VWE0 24-1282) ILDPGWVIPSKVEQLIGGDFNLSCTLNEDYFNGKSAEDCPVEKLYFTGGGRVYRDSKHIRILNNTTILFSDTNAVEQENDYHCMCDEYVINKSKVYVGTRPLLVRDFNCLDYDFQFMVCNFTQPPNTVITKYNISYNTNNDWRYSNTLDCNFDSAPVVTCNLTDDNYKRFSETFYFRLSISNALGHETQPITINHFERLVPARPGQNLTLLNRTESSVCLSWEMPRRSNYNRGLVWQVRVTPQNFEPITRPSWRNHTLTIKDTLCLTELPFAGYNYTLRVRVRANQNNTLWSEPMIYAFATAPAPPRRPPRVTYGSFYVYSSEKAMRFYWEPLEEHELNGPDFRYSISEYRINGTAVDPGLIKVESNSAMIDHWSMSAVHHFLIRSSNSQGLSVNATPMTIGPISNRDFKVREPRNIRSVYHPTNKSYTLSWDPPSDQRELQNYTVFWCVPKPGLQSECEGSIRFAEVASGLHHFTTSPDQLLTLHMAVSANYQSHNTGLHWAICSSDKKDDLAKMEPSIDVATSTSLTVSWSERVCAVILAGYNLTYCQRSAGRPDNCTTVTIDRYTNKHVIQNLVPYTDYSVKMLMYSDSRVSKYSDELVNRTGEAAPSQPRELQLIRVTSDSVELAWKPPLLANGVVRAYEGTFRSLHDNVTDTFRVSASADELVNNEKPITYRLGNLTAFTKYEISVRARTVYPSEPSNVILFSTAIGVPSPPQLYVINNPDQSSRLDWEPPRTPAGRIDFYEISLRDNNASCLTSTILPGRNLSYVMATPRCTSHNPFQLAVRAINVEQHPQLNGADAAEGAVLLMSTNGKGCEARTDALGEEERLQFEAYAANMTAYRLYRSDWGIYGFICTPDTHSVKAMYQTIEVTVAILVLGVIFYLVYKKYRKMSDIGLVLPQGIMETMKKPIDMGGLGLGLGPDSSVSGGIVCTRVDDSPPYTPQDLPHDFSSCGSESSKLLLRTASSSGGGGCVDRDGYDDNHETGPISAVGPPTSYLAMRHGLLVQNDRERERERDREQEREREQQQQQRESEMDREQSCTNGYIKPTQMKSWGGNGPSDNDHTFSVPSTAMTAPMSQPLSQIPLSGYVPVPIPQSRFNPAPVQPFGSPAVPSAATAAAASTFFPPAHLLNMDNYVQASDLHKLKPLVAAPLSQTGGPAFAGSSPATSPPLQLPPVHAASPAAATPKMADIGYTTMEQLQLTGLIKPPLAATVGSPTHAAGGAPGGGNQHSRLQPQINGYVTPQDLNAMAHNRHVL |  | no binding |
